{"source": "patent US11981626B1", "about": "“Compound embodiments for hydrogen sulfide production and methods of making and using the same” (University of Oregon, priority 2018, dated 2024)", "assay": "H2S production measured by methylene blue (MB) assay in PBS containing BSA and CA", "assay_type": "physicochemical", "settings": "50 μM by-product, PBS pH 7.4, BSA", "procedure": "Using the same conditions, H2S production was measured at different time points using the MB assay (FIG. 5A, curve labeled with the “▾” symbol). The MB assay allows for H2S quantification from the reaction of H2S with N,N-dimethyl-p-phenylenediamine in the presence of FeCl3 and acid to produce methylene blue (MB, λmax=670). In the MB assay, a γ-KetoTCM-1 stock solution (100 μL, 10.0 mM in DMSO) was added to 20.0 mL of PBS (pH 7.40, 10.0 mM) containing BSA (5.00 mg/mL) and CA (25.0 μg/mL) in a 25-mL scintillation vial at 37° C. Next, 0.300 mL aliquots of the reaction mixture were transferred to UV cuvettes containing 0.300 mL of MB cocktail at different time points. The MB reaction mixture was incubated at room temperature for 1 hour and the precipitate was removed using syringe filters. The absorbance at 670 nm was then measured and was converted to H2S concentration by using the H2S calibration curve in FIG. 6. […] The MB solution was allowed to react with H2S for 1 hour before measuring the absorbance at 670 nm.\nThe linearity between these two methods was lost after 60 minutes due to the oxidation of H2S in the MB assay at extended incubation times (FIG. 5A). […] The absorbance at 670 nm was then measured and converted to H2S concentration by using the H2S calibration curve in FIG. 6. […]", "data": [{"smiles": "Nc1ccc([N+](=O)[O-])cc1", "note": "[PNA, para-nitroaniline]", "values": [{"measurement": "response of reaction by-products in the MB assay", "result": "did not provide a positive response"}]}, {"smiles": "C=CC(C)=O", "note": "[MVK, methyl vinyl ketone]", "values": [{"measurement": "response of reaction by-products in the MB assay", "result": "did not provide a positive response"}]}]}
